Results published in publication PMC4297356.
These are yes or no findings as the source states them, for the method shown. In cells and extracts the contact can be indirect. A yes stands for co-enrichment or nearness to the bait. Other partners may have been found. Sequences can lack the tags named with a protein. Each block holds one binder with its values, some of them ahead of it.

Target: T1, Vipp1–GFP (Synechocystis Vipp1 tagged with green fluorescent protein at the C-terminus) (Synechocystis sp. PCC6803) (UniProt Q55707)
T1 sequence: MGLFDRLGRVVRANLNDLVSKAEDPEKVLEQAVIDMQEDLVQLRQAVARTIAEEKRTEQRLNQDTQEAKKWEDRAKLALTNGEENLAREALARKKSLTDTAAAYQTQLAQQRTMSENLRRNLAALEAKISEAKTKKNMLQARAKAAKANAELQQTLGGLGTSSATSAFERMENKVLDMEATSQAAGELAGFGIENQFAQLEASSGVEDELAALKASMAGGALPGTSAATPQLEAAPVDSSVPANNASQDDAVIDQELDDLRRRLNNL
Assay: affinity purification with mass spectrometry; anti-GFP microbeads (μMACS column) on lysate of HL-exposed (600 μE m^−2 s^−1) Synechocystis vipp1–gfp cells broken without detergent; bound fraction on 10% SDS-PAGE, bands identified by MS/MS; compared with LL vipp1–gfp and HL wild-type cells

binding: binds
B4: Transketolase (protein, UniProt P73282 1-670)
chain: MVVATQSLDELSINAIRFLAVDAIEKAKSGHPGLPMGAAPMAFTLWNKFMKFNPKNPKWFNRDRFVLSAGHGSMLQYALLYLLGYDSVTIEDIKQFRQWESSTPGHPENFLTAGVEVTTGPLGQGIANGVGLALAEAHLAATYNKPDATIVDHYTYVILGDGCNMEGISGEAASIAGHWGLGKLIALYDDNHISIDGSTDVAFTEDVSKRFEAYGWHVLHVEDGNTDLAAIAKAIEEAKAVTDKPSMIKVTTIIGYGAPNKSDTAGIHGAALGTDEVAATRKNLGWDYAPFEVPQEVLDYTRKAIERGASYEAEWNQAFAQYKTKYPTEAAAFERQLSGALPEGWDKTLASFTPDQKGLATRKYSEECLNALAPVLPELIGGSADLTHSNLTELHCSGDFQKGAYQNRNVHFGVREHAMGAICNGIALHGSGLLPFGATFLIFTDYMRAAIRLSALSEAGVIWVMTHDSIGQGEDGPTHQPIEVLASLRAIPNLTVIRPADGNETSGAYKVAIAKAKENAPTLLSLTRQAVPNLPGTSIDAVAKGAYTIVDSEGVPELILIGTGSEVQLCVAAAEKLAAQGKKVRVVSMPSWELFETQDAAYKESVLPKAVTKRLSVEAATNFGWHKYVGTEGDTVSIETFGASAPGGVCLEKFGFSVDNVLAKAKTLLS

binding: binds
B5: Polyribonucleotide nucleotidyltransferase (protein, UniProt P72659 1-718)
chain: MQEFDKSISFDGRDIRLKMGTLAPQAGGSVLIQSGDTAVLVTATRAKGRDGIDFLPLTVDYEGRLYAAGRIPGGFLRREGRPPEKATLISRLIDRPLRPLFPHWLRDELQIVATTLSMDEEVPPDVLAVTGASVAVILAQIPFKGPMAAVRVGLVGDDFIINPTYREVHNGDLDLVVAGTPAGIVMVEAGANQLPEQDIIEAIDFGYEAVQDLINAQRELMTDLGITLATSEPPPVNTAVEEFIANRASKKIITVLGQFDLGKDGRDAALDEIKATEVETAIAELPETDPVKQSVEEDPKLVGNLYKALTKKLMRKQIVDDGVRVDGRKLEQVRPISCEVGFLPRRVHGSGLFNRGLTQVLSLATLGSPGDAQDLADDLHPEDEKRYLHHYNFPPYSVGEARPMRSPGRREIGHGALAERAIIPVLPPQEDFPYVVRVVSEVLSSNGSTSMGSVCGSTLALMDAGVPIKKPVSGAAMGLIKEGDEIRILTDIQGIEDFLGDMDFKVAGTDSGITALQMDMKIDGLSMEVVSKAIMQALPARLHILDKMLATIREPRPELSPFAPRLLTLKIEPEHIGMVIGPGGKTIKGITEQTSCKIDIADDGTVTIASSEGERAERARQMIYNMTRKLNEGEVYLGRVTRIIPIGAFVEVLPGKEGMIHISQLTEGRVGKVEDEVGVGDEVIVKVREIDSKGRLNLTRLGIHPDEAAEARRNASRG

binding: binds
B6: Sugar kinase slr0537 (protein, UniProt Q55480 1-333)
chain: MGHKYDVYGMGNALVDMEFEVTPEQLASLGIDKGVMTLVEEARENELIAQLAQQRGKQSSGGSAANTLVSLAQLGGTGFYACKVGKDEAGAFYLQDLNDCGLDTNPHHETAGEGITGKCLVFVTPDADRTMNAFLGISGSLSVTEMDWSALKQSQYLYLEGYLVTSPSAKAACIEAKAIAEQSGVKTCLSLSDPNMAKFFQDGLKEMLGSGVDLLFANEAEALEMAGTSDLNQAIAYCKSIAKNFALTRGGAGSLIFDGENLLTIGTPKVQPIDTVGAGDMYAGGFLYGLTHGMDYEKAGQLASETAAKVVTCYGPRLDTEILQEILQSVQAV

The next lines start with the binder.

B1: Phosphoribulokinase (protein, UniProt P37101 1-332)
chain: MTTQLDRVVLIGVAGDSGCGKSTFLRRLTDLFGEEFMTVICLDDYHSLDRQGRKAAGVTALDPRANNFDLMYEQIKTLKSGQSIMKPIYNHETGLLDPPEKVEPNKVVVIEGLHPLYDERVRELVDFGVYLDISEEVKINWKIQRDMAERGHTYEDILASINARKPDFTAYIEPQKQYADVVIQVLPTRLIEDKESKLLRVRLVQKEGVKFFEPAYLFDEGSTIDWRPCGRKLTCTYPGIKMYYGPDNFMGNEVSLLEVDGRFENLEEMVYVENHLSKTGTKYYGEMTELLLKHKDYPGTDNGTGLFQVLVGLKMRKVYEQLTAEAKVPASV
binding: binds

B2: (P)ppGpp 3′-pyrophosphohydrolase (protein, UniProt P74007 1-760)
chain: MNAVAALPTPTIHTTCAQDIHDIELPQWLEDCLQQWQREIEQGQDETTAPHCLICRAFCFAYDLHAQQRRKSGEPYIAHPVAVAGLLRDLGGDEAMIAAGFLHDVVEDTDISIEQIEALFGEETASLVEGVTKLSKFNFSSTTEHQAENFRRMFLAMAKDIRVIVVKLADRLHNMRTLDALSPEKQRRIARETKDIFAPLANRLGIWRFKWELEDLSFKYLEPDSYRKIQSLVVEKRGDRESRLETVKDMLRFRLRDEGIEHFELQGRPKHLYGIYYKMTSQDKAFEEIYDIAALRIIVESKGECYRALSVVHDVFKPIPGRFKDYIGLPKPNRYQSLHTTVLGLTSRPLEIQIRTEEMHHVAEYGIAAHWKYKESGGSENATLTSTDEKFTWLRQLLDWQSDLKDAQEYVENLKQNLFDDDVYVFTPKGEVISLARGATPVDFAYRIHTEVGHHMKGARVNGQWLGVDTRLKNGDIVEIVTQKNSHPSLDWLNFVVTPSARHRIRQWFKRSRRDENILRGRELLEKELGKTGLEALLKSEPMQKTAERCNYQNVEDLLAGLGYGEITSNSVVNRLRENNVNNVKNSQSSQEVTLASSPQVHPPTPPATGKDNSPIAGIEGLLYHIAGCCHPLPGEPIMGVVTRGARGISIHRQGCHNLEQMDGDRLIPVRWNPNTNNHQTYPVDIVIEAIDRVGVLKDILSRLSDNHINVRNADVKTHLGRPAIISLKIDIHDYQQLLGIMAKIKNMSDVMDLRRVISG
binding: binds

B3: GTP-binding protein TypA/BipA homologue (protein, UniProt P72749 1-597)
chain: MSLPIRNVAIIAHVDHGKTTLVDALLKQSGIFREGEDVPVCVMDSNDLERERGITILSKNTAVRYQDTLINIVDTPGHADFGGEVERVLGMVDGCVLIVDANEGPMPQTRFVLKKALEKGLRPLVVVNKIDRPRADPNTAVDKVFDLFVELGADDDQCDFTTLFASGLGGFAKESLDDDSEDMKPLFEAILHHVPPPAGDPNKPLQLQVTTLDYSDYLGRIIIGRIHNGTVKAGQQAALVKEDGSIAKGKVSKLLGFEGLNRIELPEASAGYIVAIAGFADANIGETLTCPDEPQALPLIKVDEPTLQMTFSVNDSPFAGQEGKFVTSRQIRDRLNRELETNVALRVEDGESAEQFLVSGRGELHLGILIETMRREGYEFQVAQPQVIYREVNGQPCEPVEYLVLDVPEAAVGACIERLGQRRGEMQDMQTSVNGRTQLEFVIPARGLLGFRGDFIRITRGEGIMNHSFLEYRPMSGDLETRYNGVMVAFEEGVATFYAMKNAEDRGVFFITPGTKVYKGMIIGEHNRPQDIELNVCKTKQLTNHRSATGDELVQLQAPEDMNLERALEYIGPDELVEITPESIRLRKVARKKLVKR
binding: binds
